Screen size: about 400,000 compounds; about 13,000 (3.2%) were called active. The shares of active, inactive and inconclusive entries below differ from those in the screen. Calls follow the shape of the dose curve; as a rule, active = well fitted cell-killing curve with a large enough effect; inconclusive = small, poorly fitted or top-dose-only effect, or effect the other way; inactive = flat fitted curve, though single readings scatter. Potencies of inconclusive entries are doubtful fits and often do not repeat.
Test: qHTS assay for MDR1-selective chemotherapeutics: Primary screen using the drug-selected MDR subline cells KB-V1; also: nearly all actives have a fitted effect of over 60% in size
Conditions: KB-V1 MDR cells viability, CellTiter-Glo, 72 h; activity change, negative = cytotoxicity: at 46.1 µM (top of the series)
Outline: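 Cells of the MDR subline KB-V1 are plated, dosed with compound at multiple concentrations, and incubated 72 h at 37 degrees C; CellTiter-Glo is then added and luminescence read after 10 min.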
% is scaled to controls: 0 for no effect and ±100 for the full control effect; potency is read from the fitted curve at half-maximal effect.

SMILES | Potency | activity change, negative = cytotoxicity
Cc1cc(C)c(-c2csc(NC(=O)c3n[nH]c(=O)c4ccccc34)n2)c(C)c1 | inconclusive: 6.51 µM [cytotoxic, partial curve] | 
CCOc1ccc(OCC)c(NC(=O)C(NS(=O)(=O)c2cccs2)c2ccccc2)c1 (stereo not given) |  | inconclusive: -45.2%
COc1ccccc1-c1nc(-c2ccccn2)no1 | inconclusive: 29.1 µM [cytotoxic, single point] | 
O=C(Nc1ccc(N2CCOCC2)c2nonc12)C1CCCC1 | inconclusive: 29.1 µM [cytotoxic, single point] | 
CCOC(=O)Cn1c(=O)oc2cc(S(=O)(=O)NCCc3ccc(C)cc3)ccc21 | inactive | 
CC(=O)Nc1ccc(-c2ccnc3c2CC(C)(C(=O)Nc2ccccc2)O3)cc1 (stereo not given) | inconclusive: 18.4 µM [cytotoxic, single point] | 
Cc1ccc2c(c1)CCCN2C(=O)c1cccs1 | active: 16.4 µM | 
O=C(COc1ccc(F)cc1)NCCN1CCCC1 | inconclusive: 29.1 µM [rising, single point] | 
CC(C)(C)c1ccc(C(=O)NCC(c2cccs2)S(=O)(=O)c2cccs2)cc1 (stereo not given) | inactive | 
CCN1C(=O)[C@@H]2[C@H](C1=O)[C@@H]1C(=O)Nc3ccccc3C(=O)N1[C@@H]2c1cccc(Cl)c1 | inconclusive: 16.4 µM [rising, single point] | 
O=[N+]([O-])c1cccc2c(N3CCCC3)ccnc12 | inconclusive: 20.6 µM [cytotoxic, single point] | 
CCOC(=O)c1sc(N)c(C(=O)OCC)c1COC(=O)C1CC(=O)N(Cc2ccco2)C1 (stereo not given) | inconclusive: 20.6 µM [cytotoxic, single point] | 
CCN(CC)S(=O)(=O)c1cccc(NC(=O)CNC2CCCCCC2)c1 | inconclusive: 6.51 µM [cytotoxic, partial curve, poor fit] | 
CC1CCC(NC(=O)COC(=O)c2ccco2)CC1 (stereo not given) | inconclusive: 29.1 µM [rising, single point] | 
COc1cc(CN2CCc3nc(N4CCN(c5ccccn5)CC4)ncc3C2)cc(OC)c1OC | inconclusive: 0.731 µM [cytotoxic, full curve, poor fit] | 
CCOc1ccc(N(CC(=O)Nc2ccccc2OC)S(C)(=O)=O)cc1 | inconclusive: 20.6 µM [cytotoxic, partial curve, poor fit] | 
COc1cc2c[n+](C)c3c4ccccc4ccc3c2cc1OC | inconclusive: 5.8 µM [cytotoxic, full curve] | 
Cc1[nH]c2ccccc2c1/C=N/Nc1nc2ccccc2[nH]1 | inconclusive: 23.1 µM [cytotoxic, single point] | 
CSc1cc(-c2ccc(Cl)cc2)c(C(=O)NN)s1 | active: 8.2 µM | 
O=C1CC(c2ccccc2)CC2=C1C=Nc1ccccc1N2 (stereo not given) | inconclusive: 18.4 µM [cytotoxic, single point] | 
CCOc1ccc(S(=O)(=O)n2nc(C)c(S(=O)(=O)N3CCCCC3)c2C)cc1 | inconclusive: 29.1 µM [rising, single point] | 
Cc1cc(C)cc(Nc2c(F)c(F)c(F)c(F)c2C(=O)O)c1 | inconclusive: 29.1 µM [cytotoxic, single point] | 
O=C(COC(=O)c1ccc(Cl)nc1)NC1CCCc2ccccc21 (stereo not given) | inconclusive: 18.4 µM [rising, partial curve, poor fit] | 
CC(C)(C)OC(=O)N1CCC(c2c(C(=O)NCc3ccco3)cnn2-c2ccccc2Cl)CC1 | inconclusive: 18.4 µM [rising, single point] | 

SMILES | Potency | activity change, negative = cytotoxicity
CC(C)(CO)C(O)C(=O)NCCC#N (stereo not given) | inconclusive: 29.1 µM [rising, single point] | 
OC(C[n+]1cccc(Br)c1)c1ccccc1 (stereo not given) |  | inconclusive: 15.4%
CC1CCCCN1CCCNC(=O)c1ccc2nc(N3CCCCC3)sc2c1 (stereo not given) | inactive | 
Cn1c(O)c(N=NC(=O)c2cc(-c3cccs3)nc3ccccc23)c2ccccc21 | inconclusive: 18.4 µM [cytotoxic, single point] | 
CC(/C=C1\SC(=S)N(CCC(=O)Nc2ccccc2O)C1=O)=C\c1ccccc1 | inactive | 
C=CCNC(=O)C1CCN(C(=O)c2ccc(-c3ccccc3)cc2)CC1 | inactive | 
CCN1C(=O)C(CC(=O)Nc2ccc(OC)cc2)N(CCc2ccc(OC)cc2)C1=S (stereo not given) | inconclusive: 20.6 µM [cytotoxic, single point] | 
O=C(NCc1ccccn1)[C@@H]1CCCN1C(=O)[C@@H]1CCCN1C(=O)c1cccc(Cl)c1 | inactive | 
COc1ccc(C(C)=O)cc1CSc1nc2cc(C(=O)O)ccc2c(=O)n1Cc1ccccc1 | inconclusive: 4.11 µM [rising, full curve, poor fit] | 
COC(=O)C1=CN(C)C=C(C(=O)OC)C1c1ccsc1 | inactive | 
COC(=O)c1ccccc1NS(=O)(=O)c1ccc2c(c1)CCCN2C(C)=O | inactive | 
Cn1c(N)c(C(=O)CSc2n[nH]c(-c3ccccc3)n2)c(=O)n(C)c1=O | inconclusive: 2.91 µM [cytotoxic, partial curve, poor fit] | 
O=C(O)CC1Sc2nc3ccccc3n2C1=O (stereo not given) | inconclusive: 20.6 µM [rising, partial curve, poor fit] | 
O=C(COC(=O)c1ccc(OC(F)F)cc1)NCCC1=CCCCC1 | inconclusive: 29.1 µM [rising, single point] | 
Cn1c(SCC(=O)NNC(=O)Cc2ccccc2)nnc1-c1ccccc1 | inconclusive: 1.3 µM [rising, full curve, poor fit] | 
COC(=O)c1c(-c2ccc(Cl)cc2)noc1N1CCN(c2cc(C)ccc2C)CC1 | inactive | 
O=C(c1cccc(S(=O)(=O)NCc2ccccc2)c1)N1CCN(c2cccc(C(F)(F)F)c2)CC1 | active: 16.4 µM | 
CCOc1cccc(NC(=O)C2CC(=O)N(CC)C(=Nc3ccc(F)cc3)S2)c1 (stereo not given) | inconclusive: 23.1 µM [cytotoxic, single point] | 
CCN(CC)C(=O)c1ccc2nc(-c3ccccc3)c(-c3ccccc3)nc2c1 | active: 4.11 µM | 
CCN(CC)C(=O)Cn1cnc2sc(C(=O)N3CCN(c4ccc(OC)cc4)CC3)c(C)c2c1=O | inconclusive: 16.4 µM [cytotoxic, partial curve, poor fit] | 
CCCNC(=O)Cn1c(=O)n(CC2CCC(C(=O)NC)CC2)c(=O)c2sccc21 (stereo not given) | inconclusive: 18.4 µM [rising, partial curve, poor fit] | 
COc1ccccc1CNc1nc(Nc2cccc(-c3cnco3)c2)c2sccc2n1 | inactive | 
O=C(C1CCN(C2CC(=O)N(c3cccc(Cl)c3)C2=O)CC1)N1CCCCCC1 (stereo not given) | inactive | 
Cc1nnc(SCC2=C(C(=O)O)N3C(=O)C(NC(=O)c4cccc(F)c4F)C3SC2)s1 (stereo not given) | inconclusive: 29.1 µM [rising, single point] | 

SMILES | Potency | activity change, negative = cytotoxicity
CCCC(=O)N(c1ccc2oc(C)c(C(C)=O)c2c1)S(=O)(=O)c1ccc(CC)cc1 | active: 2.91 µM | 
CCC(=O)c1ccc(OCC(O)CN2CCN(S(=O)(=O)N3CCCCC3)CC2)cc1 (stereo not given) | inconclusive: 9.2 µM [cytotoxic, partial curve] | 
Clc1cncc(Cl)c1NNc1c2ccccc2nc2ccccc12 | inactive | 
O=C(NC1CCC(O)CC1)c1ccc(NS(=O)(=O)c2cccc([N+](=O)[O-])c2)cc1 (stereo not given) | inconclusive: 25.9 µM [rising, partial curve, poor fit] | 
O=C(CSc1ccccc1)N1CCC(N2CCC(C(=O)N3CCCC3)CC2)CC1 | inconclusive: 7.31 µM [rising, partial curve] | 
CCCCN(Cc1ccco1)C(=O)Cn1ncc2c(=O)oc3ccc(C)cc3c21 | inconclusive: 32.6 µM [rising, single point] | 
CC1(C)Cc2c(cnn2-c2cccc(F)c2)C(NC(=O)CCN2CCCC2=O)C1 (stereo not given) | inactive | 
CCOC(=O)C1CCN(c2ncc(-c3ccc4c(c3)OCCCO4)s2)CC1 | inconclusive: 16.4 µM [rising, partial curve, poor fit] | 
COc1ccc2cc(CN(CCCN3CCOCC3)Cc3nnnn3C3CCCCC3)c(=O)[nH]c2c1 | inactive | 
CCOC(=O)CSc1nc(C2CC2)cc(-c2ccc(F)cc2)c1C#N | inconclusive: 20.6 µM [cytotoxic, single point] | 
C=Cc1ccc(Cn2c(C(=O)O)c(CNCc3ccc(F)cc3)c3ccc(C)cc32)cc1 | inactive | 
Cc1onc(-c2ccccc2)c1C(=O)N1CCN(Cc2ccccc2)CC1 | active: 23.1 µM | 
O=C(Nc1ccc(F)cc1)Nc1nnc(Cc2ccccc2F)s1 | active: 18.4 µM | 
OCCC1CCCCN1CC(O)COCc1ccc(Cl)cc1 (stereo not given) | inactive | 
CC(C)NC(=O)C(=O)NCCCOC(C)C | inconclusive: 20.6 µM [rising, partial curve, poor fit] | 
COc1cc2ccccc2cc1C(=O)Nc1cccc(-c2nc3cc(C)c(C)cc3o2)c1 | inactive | 
CC1(C)CC(Cc2ccccc2C(F)(F)F)N(C(=O)OC(C)(C)C)C1 (stereo not given) | inactive | 
S=C(Nc1ccc(Cl)cc1)N(CCCN1CCOCC1)Cc1cccs1 | inconclusive: 8.2 µM [cytotoxic, partial curve] | 
CCCCNC(=O)CSc1nc2ccsc2c(=O)n1CCCC(=O)NCCc1ccc(S(N)(=O)=O)cc1 | inconclusive: 29.1 µM [rising, single point] | 
CSCC[C@@H](CO)NC(=O)[C@H]1O[C@@H](n2ccc(=O)[nH]c2=O)[C@H](O)[C@@H]1O | inactive | 
CCCCn1nnnc1C(c1cc2ccccc2o1)N1CCN(C(=O)OC(C)(C)C)CC1 (stereo not given) | inactive | 
O=C(Nc1cccc(-c2nc3cccnc3s2)c1)c1cccnc1Cl |  | inconclusive: -2.79%

Random excerpt: three compounds from above.
SMILES | Potency | activity change, negative = cytotoxicity
O=C(COc1ccc(F)cc1)NCCN1CCCC1 | inconclusive: 29.1 µM [rising, single point] | 
O=C(COC(=O)c1ccc(OC(F)F)cc1)NCCC1=CCCCC1 | inconclusive: 29.1 µM [rising, single point] | 
CCCNC(=O)Cn1c(=O)n(CC2CCC(C(=O)NC)CC2)c(=O)c2sccc21 (stereo not given) | inconclusive: 18.4 µM [rising, partial curve, poor fit] | 

— PubChem BioAssay AID1347076 (National Center for Advancing Translational Sciences (NCATS), 2019)
